Several values for one entry are separate records, joined by “and”; a condition that tells them apart may be missing. Equal values may be shown once. Hit rate of the full screen: of about 78,000 compounds, about 1,800 (2.3%) were called active. Inconclusive means that the source gave no clear call. Such entries were picked first, then a sample of the others. Cut-off read from the data, not from the text of the source: active = inhibition above about 30%; inconclusive = mostly about 10% to 28%; inactive = weaker than that.
Each molecule was assayed against Interleukin-1 receptor-like 1 (Homo sapiens) (UniProt Q01638) (assay: blocks human ST2 binding to IL-33, primary screen, biochemical, AlphaLISA (AID 1259354)). Details: AlphaLISA ST2-Fc/biotin-IL-33 interaction, 1 h; at 17 µM, active compounds read high.

Protein sequences, listed by entry. Tags and fused reporters are not part of them. Lines headed by an entry give the natural chain unless they say otherwise; changes in a name come on top.
UniProt Q01638: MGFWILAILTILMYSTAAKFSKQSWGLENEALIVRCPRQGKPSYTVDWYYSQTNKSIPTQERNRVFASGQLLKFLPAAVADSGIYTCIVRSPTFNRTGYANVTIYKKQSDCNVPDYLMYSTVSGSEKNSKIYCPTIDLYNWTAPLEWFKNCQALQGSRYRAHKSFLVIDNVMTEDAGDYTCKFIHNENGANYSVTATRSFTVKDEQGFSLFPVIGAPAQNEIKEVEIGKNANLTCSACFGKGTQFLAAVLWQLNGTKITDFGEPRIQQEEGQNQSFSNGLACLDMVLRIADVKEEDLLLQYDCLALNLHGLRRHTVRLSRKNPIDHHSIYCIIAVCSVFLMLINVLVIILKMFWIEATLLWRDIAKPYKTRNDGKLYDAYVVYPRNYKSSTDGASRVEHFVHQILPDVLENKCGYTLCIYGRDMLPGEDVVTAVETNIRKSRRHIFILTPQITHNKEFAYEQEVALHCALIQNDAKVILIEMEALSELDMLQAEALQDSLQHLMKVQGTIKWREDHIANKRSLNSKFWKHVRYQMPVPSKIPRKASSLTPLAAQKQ

| SMILES | inhibition |
| --- | --- |
| Clc1ccccc1C1CCN(c2nc(-c3ccncc3)nc3c2CNC3)C1 (configuration not stated) | inconclusive: 11% |
| Cc1ccc(-c2nc3cccc(C)n3c2Nc2ccc3c(c2)OCO3)o1 | inconclusive: 22% |
| CC(C)(C)c1cc(/C=C(\C#N)C(N)=S)cc(C(C)(C)C)c1O | inconclusive: 20% |
| COc1ccc(-c2noc(CCC(=O)Nc3ccc(Cl)cn3)n2)cc1 | inactive |
| CC1CCCCN1S(=O)(=O)c1ccc(C(=O)Nc2nnc(-c3ccc(F)cc3)o2)cc1 (configuration not stated) | inconclusive: 10% |
| N#CC1=C(N)n2c(nc3ccccc32)NC1c1ccc(Cl)cc1 (configuration not stated) | inactive |
| CC1CC(C)CN(C(=O)c2ccc([N+](=O)[O-])cc2)C1 (configuration not stated) | inactive |
| CC(C)CNc1nc2c(c(=O)n(Cc3ccc(Cl)cc3Cl)c(=O)n2C)n1C | inconclusive: 13% |
| O=c1cc(CO)oc(CN2CCN(c3ccccc3)CC2)c1O | inconclusive: 13% |
| CN(C)CCCn1c(-c2ccc(Cl)cc2)csc1=Nc1ccccc1 | active: 63% and active: 45% |
| C=CCn1c2ccccc2n2cc(-c3ccc(Cl)cc3)nc12 | inconclusive: 13% |
| CC(O)(COc1ccccc1)c1ccc2c(c1)CN(Cc1cccn1-c1ccccn1)CCO2 (configuration not stated) | inconclusive: 25% |
| O=C(Nc1ccc(C(=O)N2CCN(c3ccc(F)cc3)CC2)cc1)C1CCCO1 (configuration not stated) | inactive |
| O=C(c1cnccn1)N1C[C@@H]2OCC(=O)N(CC3CCCCC3)[C@@H]2C1 | inconclusive: 14% |
| Cc1nc(C(C)C)sc1C(=O)N(C)Cc1cc(C(C)C)on1 | inconclusive: 11% |
| CCOc1ccc(C(=O)Nc2ccc([N+](=O)[O-])cc2OC)cc1Cl | inconclusive: 12% |
| COc1cccc(C=Nc2ccc(-c3nc4ncccc4o3)cc2)c1O | inconclusive: 16% |
| CCC(=O)Nc1cccc(C(=O)NCc2sc(C)nc2CC)c1 | inconclusive: 10% |
| CCOCCCNC(=O)c1cc(=O)[nH]c2ccc(S(=O)(=O)N3CCCCC3)cc12 | inactive |
| Cc1ccc(C(=O)CSc2n[nH]c(-c3ccco3)n2)cc1 | inconclusive: 10% |
| COc1cccc(N(C(C)=O)C2=C(N(C)C)C(=O)c3ccccc3C2=O)c1 | inconclusive: 15% |

Three compounds picked at random from the list so far:

| SMILES | inhibition |
| --- | --- |
| COc1cccc(C=Nc2ccc(-c3nc4ncccc4o3)cc2)c1O | inconclusive: 16% |
| Cc1nc(C(C)C)sc1C(=O)N(C)Cc1cc(C(C)C)on1 | inconclusive: 11% |
| CC(C)CNc1nc2c(c(=O)n(Cc3ccc(Cl)cc3Cl)c(=O)n2C)n1C | inconclusive: 13% |

The listing continues:

| SMILES | inhibition |
| --- | --- |
| O=C(Nc1ccc(S(=O)(=O)c2ccc(NC(=O)c3ccco3)cc2)cc1)c1ccco1 | inconclusive: 16% |
| COc1ccc(CNCCC2CCOC(C)(C)C2)cc1 (configuration not stated) | inactive |
| CCCCc1ncc(CN2CCC(C(=O)Nc3ccccc3-c3cccc(OC)c3)CC2)[nH]1 | inconclusive: 11% |
| Cc1ccn2c(=O)cc(COc3cccc(NC(=O)C(C)(C)C)c3)nc2c1 | inactive |
| COc1cccc(F)c1-c1c(-c2ccccc2)ncn1C(C)c1cnn(C)c1 (configuration not stated) | inconclusive: 11% |
| CC(=O)c1cccc(OCc2cc(C(=O)N3CC[C@H](O)C3)n[nH]2)c1 | inconclusive: 25% |
| Cc1cccc(C)c1NC(=O)c1ccc(-c2cccc(Cl)c2Cl)o1 | inconclusive: 16% |
| COc1ccc(C(=O)Nc2sc3c(c2-c2nc4ccccc4s2)CCN(C)C3)cc1OC | inconclusive: 12% |
| c1ccc(CN2CCN(Cc3cccnc3)CC2)cc1 | inactive |
| CSc1cccc(NS(=O)(=O)c2cc(Cl)ccc2Cl)c1 | inconclusive: 17% |
| CC1=C(Cl)c2ccc(C)cc2S1(=O)=O | inactive |
| CC(C)c1cccc(OCCN2CCNCC2)c1 | inactive |
| COc1ccc(Cl)cc1NC(=O)c1c(F)c(F)c(F)c(F)c1F | inactive |
| Cc1ccc(S(=O)(=O)N2CCN(C(=O)c3cn[nH]c3C)CC2)cc1 | inactive |
| Cc1cc(C)n(CCCC(=O)N2CC(N3CCCCC3C)C2)n1 (configuration not stated) | inconclusive: 24% |
| CN(C)CCC(c1ccc(Cl)cc1)c1ccccn1 (configuration not stated) | inconclusive: 12% |
| O=C(c1cc2n(n1)C(C(F)(F)F)CC(c1ccc(Cl)c(Cl)c1)N2)N1CCCC1 (configuration not stated) | inactive |
| Cc1c(C)n(CC(O)CNC(C)(C)C)c2ccccc12 (configuration not stated) | inactive |
| CCC1(O)CCCN(c2nc(C)nc3c2CCN(C(C)=O)CC3)C1 (configuration not stated) | inactive |
| Cc1ccc(C(=O)CSc2nc3c(cc2C#N)CCCC3)cc1 | inconclusive: 22% |
| c1ccc(CCCC2CN(C3CCSCC3)CCO2)cc1 (configuration not stated) | inactive |

| SMILES | inhibition |
| --- | --- |
| N#CC1=C(N)OC2=C(C(=O)CCC2)C1c1ccc(F)cc1 (configuration not stated) | inactive |
| CC1(C)CNC(=O)c2nc(-c3cccc(OC(F)F)c3)[nH]c2C1 | inconclusive: 12% |
| COc1ccc(N(CC(=O)Nc2ccc(F)cc2)S(=O)(=O)c2ccccc2)c(OC)c1 | inactive |
| Cc1ncsc1CCN(C)C(=O)c1cc(C2CC2)[nH]n1 | inconclusive: 12% |
| COc1cc(C(=O)Nc2cc3nn(-c4ccccc4)nc3cc2C)cc(OC)c1OC | inconclusive: 18% |
| NC(=O)c1cccc(CC2CCN(C(=O)COc3ccc(Cl)cc3)C2)c1 (configuration not stated) | inactive |
| CC1=NN(c2ccc(Cl)c(C(=O)O)c2)C(=O)/C1=C\c1cccc(Br)c1 | inconclusive: 12% |
| O=C(c1ccc(S(=O)(=O)N2CCCCC2)cc1)N1CCN=C1SCc1ccccc1F | inconclusive: 10% |
| COc1ccc2cc3cc(C(=O)Nc4ccc(F)cc4F)oc3nc2c1 | inactive |
| O=C(O)CCSc1ccc([N+](=O)[O-])cc1 | inconclusive: 10% |
| O=C(O)C1=Cc2cc(O)c(O)cc2C(c2ccc(O)c(O)c2)C1C(=O)O (configuration not stated) | inconclusive: 17% |
| CCOc1ccnc(N2CCN(Cc3cccc(C)c3)C(=O)C2)n1 | inactive |
| Oc1ccc(-c2csc(Nc3ccccn3)n2)c(O)c1 | inconclusive: 18% |
| CC(NC(=O)c1cnc(Nc2ccccc2)nc1)c1cnn(C)c1 (configuration not stated) | inconclusive: 16% |
| Cc1oc2cc(OC(C)C)ccc2c(=O)c1-c1ccccc1 | inconclusive: 13% |
| COc1ccc(C(=O)Nc2ccccc2C(F)(F)F)cc1OC | inactive |
| CC1(C)OC(=O)C(=CNC(CC(=O)O)C(=O)O)C(=O)O1 (configuration not stated) | inconclusive: 16% |
| O=C(C1CCN(S(=O)(=O)N2CCCCC2)CC1)N1CCCCCC1 | inconclusive: 12% |
| C=CCn1nc(C(=O)O)c2c1CCC(N1CC(Oc3cccc(C)c3)C1)C2 (configuration not stated) | inconclusive: 19% |
| CCC(=O)N1CCc2cc(Br)cc(S(=O)(=O)CCC(=O)N3CCCCC3C)c21 (configuration not stated) | inconclusive: 11% |

From PubChem BioAssay AID1259354 (Paczesny and Yang Labs, IUPUI and University of Michigan, 2018)
